Data published in publication PMC6315023.
No constants are given. Whether binding was seen depends on the method and setting. Binding seen in cells or lysates may run through a third protein. Some entries that bind do so weakly or less than the wild type. For part of these data: Sequences can lack the tags named with a protein. Each block holds one molecule with its values, some of them ahead of it.

Chains of the proteins cited; added tags and fusions are not shown.
UniProt P40763: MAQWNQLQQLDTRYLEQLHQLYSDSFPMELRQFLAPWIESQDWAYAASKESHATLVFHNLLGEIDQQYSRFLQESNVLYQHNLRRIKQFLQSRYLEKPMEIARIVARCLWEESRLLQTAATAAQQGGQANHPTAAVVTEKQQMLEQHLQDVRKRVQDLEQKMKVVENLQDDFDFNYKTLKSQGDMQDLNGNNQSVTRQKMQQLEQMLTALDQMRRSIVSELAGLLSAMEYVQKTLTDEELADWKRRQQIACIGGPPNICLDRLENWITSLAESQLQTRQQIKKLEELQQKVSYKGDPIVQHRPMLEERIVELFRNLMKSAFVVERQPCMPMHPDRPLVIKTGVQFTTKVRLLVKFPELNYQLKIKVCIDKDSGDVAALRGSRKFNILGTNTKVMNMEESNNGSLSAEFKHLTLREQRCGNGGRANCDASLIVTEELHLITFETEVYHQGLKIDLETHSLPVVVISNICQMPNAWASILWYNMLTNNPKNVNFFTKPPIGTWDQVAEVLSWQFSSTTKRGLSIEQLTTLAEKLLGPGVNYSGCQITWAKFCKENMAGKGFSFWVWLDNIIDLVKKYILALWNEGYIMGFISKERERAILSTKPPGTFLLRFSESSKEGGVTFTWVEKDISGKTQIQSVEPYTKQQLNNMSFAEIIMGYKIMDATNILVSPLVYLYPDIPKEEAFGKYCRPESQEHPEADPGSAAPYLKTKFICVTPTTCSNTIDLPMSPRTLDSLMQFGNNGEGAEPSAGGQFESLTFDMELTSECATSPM

Columns and labels:
HA-SIRT2 = target: T1, HA-SIRT2 (UniProt Q8IXJ6); test: co-IP; cells co-transfected with Flag-STAT3 and HA-SIRT2 for 48 h; NP40 lysis buffer; Flag or HA antibody overnight at 4 °C, protein A/G agarose beads; western blot
T1 sequence: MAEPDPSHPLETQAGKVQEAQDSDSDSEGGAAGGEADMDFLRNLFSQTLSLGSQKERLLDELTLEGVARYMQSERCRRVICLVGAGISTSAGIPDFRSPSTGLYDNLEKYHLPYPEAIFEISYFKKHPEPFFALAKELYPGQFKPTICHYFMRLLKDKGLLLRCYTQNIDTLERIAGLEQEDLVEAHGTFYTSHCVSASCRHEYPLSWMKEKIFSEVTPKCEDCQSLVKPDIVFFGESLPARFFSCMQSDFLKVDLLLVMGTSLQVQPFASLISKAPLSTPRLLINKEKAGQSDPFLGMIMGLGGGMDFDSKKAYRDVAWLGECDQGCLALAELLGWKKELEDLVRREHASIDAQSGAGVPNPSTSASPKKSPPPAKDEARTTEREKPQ

Flag-STAT3 = Flag-STAT3 (UniProt P40763); test: as above
[1] = target: endogenous STAT3 (human (endogenous in SW480)) (UniProt P40763); test: co-IP; endogenous proteins; SW480 cell lysate, immunoprecipitation and western blot

- binding (HA-SIRT2): binds
Molecule: Flag-STAT3 (from UniProt P40763 1-770)

- binding (Flag-STAT3): binds
B1: HA-SIRT2 (protein, UniProt Q8IXJ6 1-389)
chain: T1 sequence

- binding [1]: binds
B2: endogenous SIRT2 (protein, UniProt Q8IXJ6 1-389)
chain: T1 sequence
